# Laboratory results: the supplement of paper PMC8728848
# The list shows a part of the results.
# B1: Blon2355mut (Bifidobacterium longum) (protein)
# chain: MVQEPTLEWHVIPEPTNVEPLVGTCSLPLSGTVVEQRGADDAEAVFARQLVDDIKRVCGGRWQVASGEVQREVTLRTSPSLDDWSYVLEVSPDGVVITGSGFEGVRDGVQTLRQIIRQIGLTIPCMVIRDRPAFSTRGYYLDVTRGRVPSMAWLKSWVDRLCFYKYNQFQLYIEHTFQFNGLSEVWRGADPLTSSDILELDSYCAARGIELVPSVSTFGHHYTALRTRQLRDLGEFPEDADRPFSLIERMTHHTLNITDERSYEFSTSLIDELMPLFRSRKFNICANETFDLGKGRSKQESAKRGVGAMYADFVERLCRHVDDRGHDVMVWADVALEHPEIIDTLPKNITWLNWQYEPNVDDGTTAALADAGATQMVCPAVWCWNALIPRIDDAWNNITRMARHGRAHDVSGMLVTDWGDFGHVNDPRMSVPGMIFGAQQSWNPDAELSEVDMLSRISTIEYGDHTGSVVGALRGASAKGGFSWSDLVTYLELDDGRGGCNTEIVRVMGCLEAYRNDLPQSGQARLADARVSMLRTLRDSILAGRELNGKLDDAAKDITQLLRVAGDPSSAAVWSLAIDGQRLLNRVGLALLAAHGVVRQDEAGIDAAKLADELECWTEQYSRLWHEVSRQSELARIQHVVWRAADVLRSI
# Columns and labels:
# Test in all cases: glycan array binding signal (z-score within array); higher = stronger binding
# Conditions in all cases: glycan notation: IUPAC condensed, linker removed
# Gal(b1-4)Glc6S = biological target: Gal(b1-4)Glc6S
# How it was run: (§1)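 Arrays were curated from the Consortium for Functional Glycomics database, 3228 in total, and kept only where the protein sequence was available. Binding is expressed as a within-array Z-score. This score was averaged across arrays of the same protein sequence at different concentrations or buffers and across linkers, and negative values can be read as non-binding.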
# Gal(b1-4)GlcNAc = biological target: Gal(b1-4)GlcNAc
# How it was run: as §1
# [1] = biological target: Gal(b1-4)GlcNAc(a1-6)Gal(b1-4)GlcNAc
# How it was run: as §1
# Gal(b1-4)GlcNAc(b1-2)Man = biological target: Gal(b1-4)GlcNAc(b1-2)Man
# How it was run: as §1
# [2] = biological target: Gal(b1-4)GlcNAc(b1-2)Man(a1-3)Man(b1-4)GlcNAc(b1-4)GlcNAc
# How it was run: as §1
# [3] = biological target: Gal(b1-4)GlcNAc(b1-2)Man(a1-3)[Gal(b1-4)GlcNAc(b1-2)Man(a1-6)]Man(b1-4)GlcNAc(b1-4)GlcNAc
# How it was run: as §1
# [4] = biological target: Gal(b1-4)GlcNAc(b1-2)Man(a1-3)[Gal(b1-4)GlcNAc(b1-2)Man(a1-6)]Man(b1-4)GlcNAc(b1-4)[Fuc(a1-6)]GlcNAc
# How it was run: as §1
# [5] = biological target: Gal(b1-4)GlcNAc(b1-2)Man(a1-3)[Gal(b1-4)GlcNAc(b1-2)Man(a1-6)][Gal(b1-4)GlcNAc(b1-4)]Man(b1-4)GlcNAc(b1-4)[Fuc(a1-6)]GlcNAc
# How it was run: as §1
# [6] = biological target: Gal(b1-4)GlcNAc(b1-2)Man(a1-3)[Gal(b1-4)GlcNAc(b1-2)Man(a1-6)][GlcNAc(b1-4)]Man(b1-4)GlcNAc(b1-4)[Fuc(a1-6)]GlcNAc
# How it was run: as §1
# [7] = biological target: Gal(b1-4)GlcNAc(b1-2)Man(a1-3)[GlcNAc(b1-2)Man(a1-6)]Man(b1-4)GlcNAc(b1-4)GlcNAc
# How it was run: as §1
# [8] = biological target: Gal(b1-4)GlcNAc(b1-2)Man(a1-3)[GlcNAc(b1-4)][Gal(b1-4)GlcNAc(b1-2)Man(a1-6)]Man(b1-4)GlcNAc(b1-4)GlcNAc
# How it was run: as §1
# [9] = biological target: Gal(b1-4)GlcNAc(b1-2)Man(a1-3)[Man(a1-6)]Man(b1-4)GlcNAc(b1-4)GlcNAc
# How it was run: as §1
# [10] = biological target: Gal(b1-4)GlcNAc(b1-2)Man(a1-6)Man(b1-4)GlcNAc(b1-4)GlcNAc
# How it was run: as §1
# [11] = biological target: Gal(b1-4)GlcNAc(b1-2)Man(a1-6)[GlcNAc(b1-2)Man(a1-3)]Man(b1-4)GlcNAc(b1-4)GlcNAc
# How it was run: as §1
# [12] = biological target: Gal(b1-4)GlcNAc(b1-2)Man(a1-6)[Man(a1-3)]Man(b1-4)GlcNAc(b1-4)GlcNAc
# How it was run: as §1
# [13] = biological target: Gal(b1-4)GlcNAc(b1-2)[Gal(b1-4)GlcNAc(b1-4)]Man(a1-3)[Gal(b1-4)GlcNAc(b1-2)Man(a1-6)]Man(b1-4)GlcNAc(b1-4)GlcNAc
# How it was run: as §1
# [14] = biological target: Gal(b1-4)GlcNAc(b1-2)[Gal(b1-4)GlcNAc(b1-4)]Man(a1-3)[Gal(b1-4)GlcNAc(b1-2)[Gal(b1-4)GlcNAc(b1-6)]Man(a1-6)]Man(b1-4)GlcNAc(b1-4)GlcNAc
# How it was run: as §1
# [15] = biological target: Gal(b1-4)GlcNAc(b1-2)[Gal(b1-4)GlcNAc(b1-4)]Man(a1-3)[GlcNAc(b1-4)][Gal(b1-4)GlcNAc(b1-2)Man(a1-6)]Man(b1-4)GlcNAc(b1-4)GlcNAc
# How it was run: as §1
# [16] = biological target: Gal(b1-4)GlcNAc(b1-2)[Gal(b1-4)GlcNAc(b1-4)]Man(a1-3)[GlcNAc(b1-4)][Gal(b1-4)GlcNAc(b1-2)[Gal(b1-4)GlcNAc(b1-6)]Man(a1-6)]Man(b1-4)GlcNAc(b1-4)GlcNAc
# How it was run: as §1
# [17] = biological target: Gal(b1-4)GlcNAc(b1-2)[Gal(b1-4)GlcNAc(b1-6)]Man(a1-6)[Gal(b1-4)GlcNAc(b1-2)Man(a1-3)]Man(b1-4)GlcNAc(b1-4)GlcNAc
# How it was run: as §1
# [18] = biological target: Gal(b1-4)GlcNAc(b1-2)[Gal(b1-4)GlcNAc(b1-6)]Man(a1-6)[Gal(b1-4)GlcNAc(b1-2)Man(a1-3)]Man(b1-4)GlcNAc(b1-4)[Fuc(a1-6)]GlcNAc
# How it was run: as §1
# [19] = biological target: Gal(b1-4)GlcNAc(b1-2)[Gal(b1-4)GlcNAc(b1-6)]Man(a1-6)[GlcNAc(b1-4)][Gal(b1-4)GlcNAc(b1-2)Man(a1-3)]Man(b1-4)GlcNAc(b1-4)GlcNAc
# How it was run: as §1
# [20] = biological target: Gal(b1-4)GlcNAc(b1-2)[Gal(b1-4)GlcNAc(b1-6)]Man(a1-6)[GlcNAc(b1-4)][Gal(b1-4)GlcNAc(b1-2)[Gal(b1-4)GlcNAc(b1-4)]Man(a1-3)]Man(b1-4)GlcNAc(b1-4)[Fuc(a1-6)]GlcNAc
# How it was run: as §1
# [21] = biological target: Gal(b1-4)GlcNAc(b1-3)Gal(b1-3)GalNAc
# How it was run: as §1
# [22] = biological target: Gal(b1-4)GlcNAc(b1-3)Gal(b1-3)GlcNAc
# How it was run: as §1
# [23] = biological target: Gal(b1-4)GlcNAc(b1-3)Gal(b1-4)Glc
# How it was run: as §1
# [24] = biological target: Gal(b1-4)GlcNAc(b1-3)Gal(b1-4)GlcNAc
# How it was run: as §1
# [25] = biological target: Gal(b1-4)GlcNAc(b1-3)Gal(b1-4)GlcNAc(b1-2)Man(a1-3)[Gal(b1-4)GlcNAc(b1-3)Gal(b1-4)GlcNAc(b1-2)Man(a1-6)]Man(b1-4)GlcNAc(b1-4)GlcNAc
# How it was run: as §1
# [26] = biological target: Gal(b1-4)GlcNAc(b1-3)Gal(b1-4)GlcNAc(b1-2)Man(a1-3)[Gal(b1-4)GlcNAc(b1-3)Gal(b1-4)GlcNAc(b1-2)Man(a1-6)]Man(b1-4)GlcNAc(b1-4)[Fuc(a1-6)]GlcNAc
# How it was run: as §1
# [27] = biological target: Gal(b1-4)GlcNAc(b1-3)Gal(b1-4)GlcNAc(b1-2)[Gal(b1-4)GlcNAc(b1-3)Gal(b1-4)GlcNAc(b1-6)]Man(a1-6)[Gal(b1-4)GlcNAc(b1-3)Gal(b1-4)GlcNAc(b1-2)Man(a1-3)]Man(b1-4)GlcNAc(b1-4)GlcNAc
# How it was run: as §1
binder,measurement,setting,value
B1,glycan array binding signal (z-score),Gal(b1-4)Glc6S,0.156
same,glycan array binding signal (z-score),Gal(b1-4)GlcNAc,-0.297
same,glycan array binding signal (z-score),[1],-0.719
same,glycan array binding signal (z-score),Gal(b1-4)GlcNAc(b1-2)Man,-0.584
same,glycan array binding signal (z-score),[2],-1.03
same,glycan array binding signal (z-score),[3],-0.374
same,glycan array binding signal (z-score),[4],-0.617
same,glycan array binding signal (z-score),[5],-0.455
same,glycan array binding signal (z-score),[6],-0.951
same,glycan array binding signal (z-score),[7],-0.763
same,glycan array binding signal (z-score),[8],-0.264
same,glycan array binding signal (z-score),[9],-0.773
same,glycan array binding signal (z-score),[10],-0.881
same,glycan array binding signal (z-score),[11],-1.25
same,glycan array binding signal (z-score),[12],-0.33
same,glycan array binding signal (z-score),[13],-1.08
same,glycan array binding signal (z-score),[14],-1.14
same,glycan array binding signal (z-score),[15],-1.44
same,glycan array binding signal (z-score),[16],0.159
same,glycan array binding signal (z-score),[17],-0.993
same,glycan array binding signal (z-score),[18],-0.649
same,glycan array binding signal (z-score),[19],-0.31
same,glycan array binding signal (z-score),[20],-0.768
same,glycan array binding signal (z-score),[21],-0.46
same,glycan array binding signal (z-score),[22],-1.26
same,glycan array binding signal (z-score),[23],1.06
same,glycan array binding signal (z-score),[24],-0.599
same,glycan array binding signal (z-score),[25],0.408
same,glycan array binding signal (z-score),[26],-0.037
same,glycan array binding signal (z-score),[27],0.301

# An excerpt of these results, with tabs:
binder	measurement	setting	value
B1	glycan array binding signal (z-score)	[18]	-0.649
same	glycan array binding signal (z-score)	[26]	-0.037
